From the supplement of paper PMC10735217
Some of the results follow. Repeats in this data set agree poorly, so a single value says little.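 In a drug-repurposing library screen, luminescence reads luciferase driven by eight TEAD-binding elements, stably integrated into human kidney-derived cells. Compounds scoring over five robust Z scores above the plate mean are called hits.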

System: HEK293A TEAD-LUC reporter
Test: TEAD-luciferase reporter activity (YAP activation), robust Z score vs plate; higher = stronger YAP/TEAD activation
Conditions: 24 h

**Q.** How did the TEAD-luciferase reporter activity (compound concentration: 200 nM) turn out when `COc1c(NC(=O)C(=O)c2ccc(OCCN3CCOCC3)c3ccccc23)cc(C(C)(C)C)cc1NS(C)(=O)=O` was run?
**A.** Its TEAD-luciferase reporter activity is inactive: -1.26.

**Q.** What about the TEAD-luciferase reporter activity (compound concentration: 2 uM) of the same compound?
**A.** Its TEAD-luciferase reporter activity is inactive: -0.39.

**Q.** What about the TEAD-luciferase reporter activity (compound concentration: 10 uM) of the same compound?
**A.** The TEAD-luciferase reporter activity was inactive: 0.0229.

**Q.** How did the TEAD-luciferase reporter activity (compound concentration: 200 nM) turn out when `O=C(NCCN1CCN=C1c1ccncc1)Nc1ccc(C(=O)O)cc1` was run?
**A.** The TEAD-luciferase reporter activity was inactive: 0.188.

**Q.** What about the TEAD-luciferase reporter activity (compound concentration: 10 uM) of the same compound?
**A.** Its TEAD-luciferase reporter activity is inactive: 0.707.

**Q.** `O=C(NCc1cccc(Cl)c1)c1ccc2nc(-c3ccncc3)oc2c1` was tested. Which TEAD-luciferase reporter activity (compound concentration: 200 nM) did it give?
**A.** The TEAD-luciferase reporter activity was inactive: -0.252.

**Q.** What about the TEAD-luciferase reporter activity (compound concentration: 10 uM) of the same compound?
**A.** The TEAD-luciferase reporter activity was inactive: -1.62.

**Q.** For `CC(C)(C)NC(=O)[C@H]1CC[C@H]2[C@@H]3CC=C4C=C(C(=O)O)CC[C@]4(C)[C@H]3CC[C@]12C` [epristeride], which TEAD-luciferase reporter activity (compound concentration: 200 nM) is on record?
**A.** Its TEAD-luciferase reporter activity is inactive: -1.52.

**Q.** And the TEAD-luciferase reporter activity (compound concentration: 2 uM)?
**A.** Its TEAD-luciferase reporter activity is inactive: 1.52.

**Q.** What about the TEAD-luciferase reporter activity (compound concentration: 10 uM) of the same compound?
**A.** Its TEAD-luciferase reporter activity is inactive: 0.114.

**Q.** Which TEAD-luciferase reporter activity (compound concentration: 200 nM) does the source give for `CCCCC/C=C/C/C=C/CCCCCCCC(=O)OCC(=O)[C@@]1(O)[C@H](C)C[C@H]2[C@@H]3CCC4=CC(=O)C=C[C@]4(C)[C@@]3(F)[C@@H](O)C[C@@]21C` [dexamethasone linoleate] here?
**A.** Its TEAD-luciferase reporter activity is inactive: 0.193.

**Q.** And the TEAD-luciferase reporter activity (compound concentration: 2 uM)?
**A.** Its TEAD-luciferase reporter activity is inactive: -0.0617.

**Q.** What about the TEAD-luciferase reporter activity (compound concentration: 10 uM) of the same compound?
**A.** The TEAD-luciferase reporter activity was inactive: 0.756.

**Q.** What does the source list for `COc1cc(C(=O)N2CCC(CCN3CCC(C(=O)N4CCN(CC(=O)O)CC4)(c4ccccc4)CC3)(c3ccc(Cl)c(Cl)c3)C2)cc(OC)c1OC` (stereo not given)?
**A.** TEAD-luciferase reporter activity (compound concentration: 200 nM): inactive: -1.71; TEAD-luciferase reporter activity (compound concentration: 2 uM): inactive: 0.075; TEAD-luciferase reporter activity (compound concentration: 10 uM): inactive: -1.35

**Q.** How did the TEAD-luciferase reporter activity (compound concentration: 200 nM) turn out when `CC(SC(=O)c1cccs1)C(=O)NC1CCSC1=O` (stereo not given) [Midesteine] was run?
**A.** The TEAD-luciferase reporter activity was inactive: 0.601.

**Q.** What about the TEAD-luciferase reporter activity (compound concentration: 2 uM) of the same compound?
**A.** Its TEAD-luciferase reporter activity is inactive: 1.16.

**Q.** And the TEAD-luciferase reporter activity (compound concentration: 10 uM)?
**A.** Its TEAD-luciferase reporter activity is inactive: -0.618.

**Q.** With `Fc1ccc(NC(=S)Nc2cccc(Cl)c2)cc1` as the compound, how does the TEAD-luciferase reporter activity (compound concentration: 200 nM) read?
**A.** The TEAD-luciferase reporter activity was inactive: -0.123.

**Q.** And the TEAD-luciferase reporter activity (compound concentration: 2 uM)?
**A.** The TEAD-luciferase reporter activity was inactive: -0.864.

**Q.** And the TEAD-luciferase reporter activity (compound concentration: 10 uM)?
**A.** Its TEAD-luciferase reporter activity is inactive: -0.93.

**Q.** What does the source list for `Cc1cccc(CCN2CCC(C(=O)c3ccc(NS(C)(=O)=O)cc3)CC2)n1`?
**A.** TEAD-luciferase reporter activity (compound concentration: 200 nM): inactive: 0.55; TEAD-luciferase reporter activity (compound concentration: 2 uM): inactive: -0.34; TEAD-luciferase reporter activity (compound concentration: 10 uM): inactive: 0.717

**Q.** What does the source list for `Cc1nc(N)nc(N)c1C1CCCCC1`?
**A.** TEAD-luciferase reporter activity (compound concentration: 200 nM): inactive: -0.419; TEAD-luciferase reporter activity (compound concentration: 2 uM): inactive: -1.03; TEAD-luciferase reporter activity (compound concentration: 10 uM): active: 7

**Q.** With `Cc1ccc(C(=O)Nc2ccc(C3=NCCN3)cc2)cc1` as the compound, how does the TEAD-luciferase reporter activity (compound concentration: 200 nM) read?
**A.** The TEAD-luciferase reporter activity was inactive: 0.406.

**Q.** And the TEAD-luciferase reporter activity (compound concentration: 2 uM)?
**A.** The TEAD-luciferase reporter activity was inactive: 4.22.

**Q.** And the TEAD-luciferase reporter activity (compound concentration: 10 uM)?
**A.** The TEAD-luciferase reporter activity was inactive: 1.22.

**Q.** Which TEAD-luciferase reporter activity (compound concentration: 200 nM) does the source give for `O=C(c1ccc(F)cc1)N1CCC(n2c(=O)[nH]c3ccccc32)CC1` here?
**A.** Its TEAD-luciferase reporter activity is inactive: 1.05.

**Q.** What about the TEAD-luciferase reporter activity (compound concentration: 10 uM) of the same compound?
**A.** Its TEAD-luciferase reporter activity is inactive: 0.513.

**Q.** `COc1ccc(CNc2nc([C@H]3CC[C@H](C(=O)O)CC3)nc3sc4ccccc4c23)cc1Cl` was tested. Which TEAD-luciferase reporter activity (compound concentration: 200 nM) did it give?
**A.** Its TEAD-luciferase reporter activity is inactive: -1.64.

**Q.** And the TEAD-luciferase reporter activity (compound concentration: 2 uM)?
**A.** The TEAD-luciferase reporter activity was inactive: -1.97.

**Q.** What about the TEAD-luciferase reporter activity (compound concentration: 10 uM) of the same compound?
**A.** Its TEAD-luciferase reporter activity is active: 9.49.

**Q.** For `C=C1c2c(Cl)ccc(O)c2C(=O)C2=C(O)[C@]3(O)C(=O)C(C(N)=O)=C(O)[C@@H](N(C)C)[C@@H]3[C@@H](O)C12` (stereo not given in full) [Meclocycline sulfosalicylate], which TEAD-luciferase reporter activity (compound concentration: 200 nM) is on record?
**A.** Its TEAD-luciferase reporter activity is inactive: -1.36.

**Q.** And the TEAD-luciferase reporter activity (compound concentration: 2 uM)?
**A.** The TEAD-luciferase reporter activity was inactive: 0.343.

**Q.** And the TEAD-luciferase reporter activity (compound concentration: 10 uM)?
**A.** The TEAD-luciferase reporter activity was inactive: 0.681.

**Q.** `CC(=O)N[C@H](Cc1ccc2ccccc2c1)C(=O)N[C@H](Cc1ccc(Cl)cc1)C(=O)N[C@H](Cc1cccnc1)C(=O)N[C@@H](CO)C(=O)N[C@@H](Cc1ccc(NC(=O)[C@@H]2CC(=O)NC(=O)N2)cc1)C(=O)N[C@H](Cc1ccc(NC(N)=O)cc1)C(=O)N[C@@H](CC(C)C)C(=O)N[C@@H](CCCCNC(C)C)C(=O)N1CCC[C@H]1C(=O)N[C@H](C)C(N)=O` [Degarelix] was tested. Which TEAD-luciferase reporter activity (compound concentration: 200 nM) did it give?
**A.** The TEAD-luciferase reporter activity was inactive: -1.39.

**Q.** What about the TEAD-luciferase reporter activity (compound concentration: 2 uM) of the same compound?
**A.** The TEAD-luciferase reporter activity was inactive: 1.44.

**Q.** What about the TEAD-luciferase reporter activity (compound concentration: 10 uM) of the same compound?
**A.** Its TEAD-luciferase reporter activity is inactive: 2.64.

**Q.** Which results are given for `NCC(=O)NC1Cc2ccccc2C1`?
**A.** TEAD-luciferase reporter activity (compound concentration: 200 nM): inactive: -0.52; TEAD-luciferase reporter activity (compound concentration: 2 uM): inactive: -0.847; TEAD-luciferase reporter activity (compound concentration: 10 uM): inactive: -1.26

**Q.** With `Cc1ccc(-c2c(-c3ccncc3)c(-c3ccc(F)cc3)nc3[nH]ncc23)cc1` as the compound, how does the TEAD-luciferase reporter activity (compound concentration: 200 nM) read?
**A.** The TEAD-luciferase reporter activity was inactive: -0.72.

**Q.** What about the TEAD-luciferase reporter activity (compound concentration: 2 uM) of the same compound?
**A.** The TEAD-luciferase reporter activity was inactive: -1.42.

**Q.** And the TEAD-luciferase reporter activity (compound concentration: 10 uM)?
**A.** The TEAD-luciferase reporter activity was active: 6.25.

**Q.** Which TEAD-luciferase reporter activity (compound concentration: 200 nM) does the source give for `CCC(=O)N1C2CCCC1CC(=O)C2` here?
**A.** The TEAD-luciferase reporter activity was inactive: 0.655.

**Q.** What about the TEAD-luciferase reporter activity (compound concentration: 10 uM) of the same compound?
**A.** Its TEAD-luciferase reporter activity is inactive: 2.04.

**Q.** Which results are given for `COc1ccc(C2Sc3cc(Cl)ccc3N(CCN(C)C)C(=O)C2OC(C)=O)cc1` (stereo not given)?
**A.** TEAD-luciferase reporter activity (compound concentration: 200 nM): inactive: 0.0852; TEAD-luciferase reporter activity (compound concentration: 2 uM): inactive: 0.0596; TEAD-luciferase reporter activity (compound concentration: 10 uM): inactive: -0.614

**Q.** Which TEAD-luciferase reporter activity (compound concentration: 200 nM) does the source give for `Cc1cc(S(C)(=O)=O)c(NC(=O)N(Cc2ccc(Oc3ccc(F)cc3)cc2)C2CCCCCC2)c(S(C)(=O)=O)n1` here?
**A.** Its TEAD-luciferase reporter activity is inactive: -1.45.

**Q.** What about the TEAD-luciferase reporter activity (compound concentration: 2 uM) of the same compound?
**A.** The TEAD-luciferase reporter activity was inactive: 2.52.

**Q.** And the TEAD-luciferase reporter activity (compound concentration: 10 uM)?
**A.** Its TEAD-luciferase reporter activity is inactive: 2.58.

**Q.** What does the source list for `Cc1[nH]nc(C(F)(F)F)c1Cc1sc2c(c1C(=O)N1C[C@](C)(O)CO1)c(=O)n(C)c(=O)n2C(C)C`?
**A.** TEAD-luciferase reporter activity (compound concentration: 200 nM): inactive: -1.65; TEAD-luciferase reporter activity (compound concentration: 2 uM): inactive: -2.13; TEAD-luciferase reporter activity (compound concentration: 10 uM): inactive: 1.04

**Q.** How did the TEAD-luciferase reporter activity (compound concentration: 200 nM) turn out when `CC(=O)Nc1ccc(OCCOC(=O)c2ccccc2OC(C)=O)cc1` was run?
**A.** Its TEAD-luciferase reporter activity is inactive: -1.16.

**Q.** And the TEAD-luciferase reporter activity (compound concentration: 2 uM)?
**A.** Its TEAD-luciferase reporter activity is inactive: 0.951.

**Q.** What about the TEAD-luciferase reporter activity (compound concentration: 10 uM) of the same compound?
**A.** Its TEAD-luciferase reporter activity is inactive: 3.37.

**Q.** For `CC(=O)c1ccc2c(c1)[C@@H](NC(=O)c1cc(F)cc(F)c1)[C@H](O)C(C)(C)O2` [Tidembersat], which TEAD-luciferase reporter activity (compound concentration: 200 nM) is on record?
**A.** Its TEAD-luciferase reporter activity is inactive: -0.982.

**Q.** And the TEAD-luciferase reporter activity (compound concentration: 2 uM)?
**A.** Its TEAD-luciferase reporter activity is inactive: -0.847.

**Q.** What about the TEAD-luciferase reporter activity (compound concentration: 10 uM) of the same compound?
**A.** Its TEAD-luciferase reporter activity is inactive: -0.938.

**Q.** How did the TEAD-luciferase reporter activity (compound concentration: 200 nM) turn out when `Cc1cc2ncc(C(=O)NC(C)CCc3ccccc3)cn2n1` (stereo not given) was run?
**A.** Its TEAD-luciferase reporter activity is inactive: 3.66.

**Q.** And the TEAD-luciferase reporter activity (compound concentration: 10 uM)?
**A.** Its TEAD-luciferase reporter activity is inactive: 2.25.

**Q.** Which TEAD-luciferase reporter activity (compound concentration: 200 nM) does the source give for `CCCCC(F)(F)[C@@]1(O)CC[C@@H]2[C@H](CCCCCCC(=O)O)C(=O)C[C@H]2O1` [Lubiprostone] here?
**A.** Its TEAD-luciferase reporter activity is inactive: -0.136.

**Q.** What about the TEAD-luciferase reporter activity (compound concentration: 2 uM) of the same compound?
**A.** Its TEAD-luciferase reporter activity is inactive: 1.15.

**Q.** And the TEAD-luciferase reporter activity (compound concentration: 10 uM)?
**A.** The TEAD-luciferase reporter activity was inactive: 4.06.
